Some of the results follow.
Legend:
Assay in all cases: glycan array binding signal (z-score within array); higher = stronger binding
Conditions in all cases: glycan notation: IUPAC condensed, linker removed
[1] = biological target: Neu5Ac(a2-8)Neu5Ac(a2-3)Gal(b1-3)GalNAc(b1-4)[Neu5Ac(a2-8)Neu5Ac(a2-3)]Gal(b1-4)Glc
Procedure, shortened: (§1)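 Glycan array data came from 3228 arrays in the Consortium for Functional Glycomics database, and only arrays with an available protein sequence were kept. Glycan names were put into IUPAC-condensed notation, and columns mapping to the same glycan were averaged. The binding signal is a within-array Z-score, averaged across arrays of one protein sequence run at different concentrations or buffers and across linkers. A negative Z-score can be read as non-binding.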

[2] = biological target: Neu5Ac(a2-8)Neu5Ac(a2-3)Gal(b1-4)Glc
Procedure, shortened: as §1

[3] = biological target: Neu5Ac(a2-8)Neu5Ac(a2-3)Gal(b1-4)GlcNAc
Procedure, shortened: as §1

[4] = biological target: Neu5Ac(a2-8)Neu5Ac(a2-3)[Gal(b1-3)GalNAc(b1-4)]Gal(b1-4)Glc
Procedure, shortened: as §1

[5] = biological target: Neu5Ac(a2-8)Neu5Ac(a2-3)[GalNAc(b1-4)]Gal(b1-4)Glc
Procedure, shortened: as §1

[6] = biological target: Neu5Ac(a2-8)Neu5Ac(a2-8)Neu5Ac
Procedure, shortened: as §1

[7] = biological target: Neu5Ac(a2-8)Neu5Ac(a2-8)Neu5Ac(a2-3)Gal(b1-4)Glc
Procedure, shortened: as §1

[8] = biological target: Neu5Ac(a2-8)Neu5Ac(a2-8)Neu5Ac(a2-3)[Gal(b1-3)GalNAc(b1-4)]Gal(b1-4)Glc
Procedure, shortened: as §1

[9] = biological target: Neu5Ac(a2-8)Neu5Ac(a2-8)Neu5Ac(a2-3)[GalNAc(b1-4)]Gal(b1-4)Glc
Procedure, shortened: as §1

[10] = biological target: Neu5Ac(a2-8)Neu5Ac(a2-8)Neu5Ac(a2-8)Neu5Ac(a2-3)[GalNAc(b1-4)]Gal(b1-4)Glc
Procedure, shortened: as §1

[11] = biological target: Neu5Ac(a2-8)Neu5Gc(a2-3)Gal(b1-4)GlcNAc
Procedure, shortened: as §1

[12] = biological target: Neu5Ac(b2-6)Gal(b1-4)GlcNAc
Procedure, shortened: as §1

Neu5Ac(b2-6)GalNAc = biological target: Neu5Ac(b2-6)GalNAc
Procedure, shortened: as §1

[13] = biological target: Neu5Ac9Ac(a2-3)Gal(b1-3)GlcNAc
Procedure, shortened: as §1

[14] = biological target: Neu5Ac9Ac(a2-3)Gal(b1-4)GlcNAc
Procedure, shortened: as §1

[15] = biological target: Neu5Ac9Ac(a2-6)Gal(b1-4)GlcNAc
Procedure, shortened: as §1

[16] = biological target: Neu5Gc(a2-3)Gal(b1-3)GlcNAc
Procedure, shortened: as §1

[17] = biological target: Neu5Gc(a2-3)Gal(b1-3)[Fuc(a1-4)]GlcNAc
Procedure, shortened: as §1

Neu5Gc(a2-3)Gal(b1-4)Glc = biological target: Neu5Gc(a2-3)Gal(b1-4)Glc
Procedure, shortened: as §1

[18] = biological target: Neu5Gc(a2-3)Gal(b1-4)GlcNAc
Procedure, shortened: as §1

[19] = biological target: Neu5Gc(a2-3)Gal(b1-4)GlcNAc(b1-3)Gal(b1-4)GlcNAc(b1-2)Man(a1-3)[Neu5Gc(a2-3)Gal(b1-4)GlcNAc(b1-3)Gal(b1-4)GlcNAc(b1-2)Man(a1-6)]Man(b1-4)GlcNAc(b1-4)GlcNAc
Procedure, shortened: as §1

[20] = biological target: Neu5Gc(a2-3)Gal(b1-4)[Fuc(a1-3)]GlcNAc
Procedure, shortened: as §1

[21] = biological target: Neu5Gc(a2-6)Gal(b1-4)GlcNAc
Procedure, shortened: as §1

Neu5Gc(a2-6)GalNAc = biological target: Neu5Gc(a2-6)GalNAc
Procedure, shortened: as §1

[22] = biological target: Neu5Gc(a2-8)Neu5Ac(a2-3)Gal(b1-4)GlcNAc
Procedure, shortened: as §1

[23] = biological target: Neu5Gc(a2-8)Neu5Gc(a2-3)Gal(b1-4)GlcNAc
Procedure, shortened: as §1

[24] = biological target: Neu5Gc(a2-8)Neu5Gc(a2-3)Gal(b1-4)GlcNAc(b1-3)Gal(b1-4)GlcNAc
Procedure, shortened: as §1

[25] = biological target: Neu5Gc(a2-8)Neu5Gc(a2-6)Gal(b1-4)GlcNAc
Procedure, shortened: as §1

[26] = biological target: Neu5Gc(b2-6)Gal(b1-4)GlcNAc
Procedure, shortened: as §1

B1: LlpA1 (Pseudomonas fluorescens), Q4KHC3 (protein)
chain: MGSSHHHHHHSSGLVPRGSHMAWIRYDFTDNGSSVLPARYYMAPNQYLQSPNKRFKLLFQADGNLALYDGAQLAWVADQNTPFTNVSKGNKKDPMMVFMNYGFVLDDPLRGRIWSTTPSDPTMGSREDASLRAFTQVQDDGNIVTVDTIPHWYAPNGRVFTPAVGAAMIIGGTTELVPGQFYSAGEHSLVFQGDGNLVVYGPNSSVIWATYTQNKGGVRCVMQEDGNLVIYAANNGVVWQSGTGGHPGATIRLQANGSFTIVTERPVWARFGYTPTIKPPRVFYPDHKWKTGSYTWNNVF
glycan array binding signal (z-score) [1]: -0.003
glycan array binding signal (z-score) [2]: 0.054
glycan array binding signal (z-score) [3]: -0.552
glycan array binding signal (z-score) [4]: -0.148
glycan array binding signal (z-score) [5]: -0.414
glycan array binding signal (z-score) [6]: -0.363
glycan array binding signal (z-score) [7]: -0.122
glycan array binding signal (z-score) [8]: 0.473
glycan array binding signal (z-score) [9]: -0.21
glycan array binding signal (z-score) [10]: 0.121
glycan array binding signal (z-score) [11]: 8.89
glycan array binding signal (z-score) [12]: -0.022
glycan array binding signal (z-score) (Neu5Ac(b2-6)GalNAc): -0.764
glycan array binding signal (z-score) [13]: -0.223
glycan array binding signal (z-score) [14]: -0.488
glycan array binding signal (z-score) [15]: -0.615
glycan array binding signal (z-score) [16]: -0.477
glycan array binding signal (z-score) [17]: -0.218
glycan array binding signal (z-score) (Neu5Gc(a2-3)Gal(b1-4)Glc): -0.626
glycan array binding signal (z-score) [18]: -0.809
glycan array binding signal (z-score) [19]: -0.474
glycan array binding signal (z-score) [20]: -0.843
glycan array binding signal (z-score) [21]: -0.079
glycan array binding signal (z-score) (Neu5Gc(a2-6)GalNAc): -0.102
glycan array binding signal (z-score) [22]: -0.61
glycan array binding signal (z-score) [23]: -0.474
glycan array binding signal (z-score) [24]: 0.305
glycan array binding signal (z-score) [25]: -0.546
glycan array binding signal (z-score) [26]: -0.167

From the supplement of paper PMC8728848
